# Source: article PMC11831767
# Sequences of proteins named here, by UniProt entry; tags and fusion partners are left off. Residues count along the entry.
# UniProt Q04206: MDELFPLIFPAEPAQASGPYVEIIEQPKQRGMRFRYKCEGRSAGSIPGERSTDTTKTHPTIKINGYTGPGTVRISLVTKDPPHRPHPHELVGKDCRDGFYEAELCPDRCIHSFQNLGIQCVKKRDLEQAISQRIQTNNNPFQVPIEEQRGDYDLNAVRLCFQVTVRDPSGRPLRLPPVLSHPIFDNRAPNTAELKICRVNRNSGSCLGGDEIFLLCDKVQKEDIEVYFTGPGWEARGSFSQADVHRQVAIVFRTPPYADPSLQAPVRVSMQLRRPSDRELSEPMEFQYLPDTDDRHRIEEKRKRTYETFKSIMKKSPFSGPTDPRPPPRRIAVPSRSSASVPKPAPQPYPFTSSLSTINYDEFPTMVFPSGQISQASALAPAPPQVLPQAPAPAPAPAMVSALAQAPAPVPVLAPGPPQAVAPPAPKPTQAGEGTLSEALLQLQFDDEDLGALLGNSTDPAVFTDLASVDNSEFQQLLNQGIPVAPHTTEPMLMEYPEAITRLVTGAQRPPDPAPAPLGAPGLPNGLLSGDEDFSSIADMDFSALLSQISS
# UniProt P19838, residues 1-433: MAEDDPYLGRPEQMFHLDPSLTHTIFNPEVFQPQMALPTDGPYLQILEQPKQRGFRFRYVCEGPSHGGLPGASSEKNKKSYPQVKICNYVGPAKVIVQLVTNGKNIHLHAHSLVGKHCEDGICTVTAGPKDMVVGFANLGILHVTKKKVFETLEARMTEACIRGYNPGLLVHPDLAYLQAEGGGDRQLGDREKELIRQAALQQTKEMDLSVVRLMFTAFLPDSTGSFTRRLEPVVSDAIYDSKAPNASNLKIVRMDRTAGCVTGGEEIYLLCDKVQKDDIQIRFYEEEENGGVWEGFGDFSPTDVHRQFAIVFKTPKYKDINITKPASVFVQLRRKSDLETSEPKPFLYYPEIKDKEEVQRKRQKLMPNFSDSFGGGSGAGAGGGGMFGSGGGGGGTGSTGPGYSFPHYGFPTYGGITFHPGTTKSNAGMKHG
# No constants are given. Whether binding was seen depends on the method and setting. In cells and extracts the contact can be indirect. Some results given as binding are weak or reduced against the parent protein; the word gives no strength.
# Target: His-tagged p65, full length (human (amplified from 293T cells)) (UniProt Q04206)
# Experiment: co-IP; 293T cells co-transfected with p65-His and 2C-Flag or p65-His and PCI-Flag (legend: p65, p50 and 2C); immunoprecipitated with anti-His; p50 detected by western blot
substance,measurement,value
p50 (from UniProt P19838 1-433),binding,binds
